# From the supplement of paper PMC8728848
# Some of the results follow.
# B1: MFG-E8 (Mus musculus), P21956 (protein)
# chain: MQVSRVLAALCGMLLCASGLFAASGDFCDSSLCLNGGTCLTGQDNDIYCLCPEGFTGLVCNETERGPCSPNPCYNDAKCLVTLDTQRGDIFTEYICQCPVGYSGIHCETETNYYNLDGEYMFTTAVPNTAVPTPAPTPDLSNNLASRCSTQLGMEGGAIADSQISASSVYMGFMGLQRWGPELARLYRTGIVNAWTASNYDSKPWIQVNLLRKMRVSGVMTQGASRAGRAEYLKTFKVAYSLDGRKFEFIQDESGGDKEFLGNLDNNSLKVNMFNPTLEAQYIKLYPVSCHRGCTLRFELLGCELHGCSEPLGLKNNTIPDSQMSASSSYKTWNLRAFGWYPHLGRLDNQGKINAWTAQSNSAKEWLQVDLGTQRQVTGIITQGARDFGHIQYVASYKVAHSDDGVQWTVYEEQGSSKVFQGNLDNNSHKKNIFEKPFMARYVRVLPVSWHNRITLRLELLGC
# Legend:
# Assay in all cases: glycan array binding signal (z-score within array); higher = stronger binding
# Settings in all cases: glycan notation: IUPAC condensed, linker removed
# [1] = target: Gal(b1-4)GlcNAc(b1-3)Gal(b1-4)GlcNAc(b1-2)Man(a1-3)[Gal(b1-4)GlcNAc(b1-3)Gal(b1-4)GlcNAc(b1-2)Man(a1-6)]Man(b1-4)GlcNAc(b1-4)GlcNAc
# How it was run: (§1)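 Glycan array data were curated from 3228 arrays in the Consortium for Functional Glycomics database and kept only where the protein sequence was available. Glycan names were converted to IUPAC-condensed notation, and columns mapping to the same glycan were averaged. The binding signal is a within-array Z-score, averaged across arrays of the same protein sequence at different concentrations or buffers and across linkers. Negative Z-scores can be read as non-binding.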
# [2] = target: Gal(b1-4)GlcNAc(b1-3)Gal(b1-4)GlcNAc(b1-2)Man(a1-3)[Gal(b1-4)GlcNAc(b1-3)Gal(b1-4)GlcNAc(b1-2)Man(a1-6)]Man(b1-4)GlcNAc(b1-4)[Fuc(a1-6)]GlcNAc
# How it was run: as §1
# [3] = target: Gal(b1-4)GlcNAc(b1-3)Gal(b1-4)GlcNAc(b1-2)[Gal(b1-4)GlcNAc(b1-3)Gal(b1-4)GlcNAc(b1-6)]Man(a1-6)[Gal(b1-4)GlcNAc(b1-3)Gal(b1-4)GlcNAc(b1-2)Man(a1-3)]Man(b1-4)GlcNAc(b1-4)GlcNAc
# How it was run: as §1
# [4] = target: Gal(b1-4)GlcNAc(b1-3)Gal(b1-4)GlcNAc(b1-2)[Gal(b1-4)GlcNAc(b1-3)Gal(b1-4)GlcNAc(b1-6)]Man(a1-6)[Gal(b1-4)GlcNAc(b1-3)Gal(b1-4)GlcNAc(b1-2)Man(a1-3)]Man(b1-4)GlcNAc(b1-4)[Fuc(a1-6)]GlcNAc
# How it was run: as §1
# [5] = target: Gal(b1-4)GlcNAc(b1-3)Gal(b1-4)GlcNAc(b1-3)Gal(b1-4)GlcNAc
# How it was run: as §1
# [6] = target: Gal(b1-4)GlcNAc(b1-3)Gal(b1-4)GlcNAc(b1-3)Gal(b1-4)GlcNAc(b1-2)Man(a1-3)[Gal(b1-4)GlcNAc(b1-3)Gal(b1-4)GlcNAc(b1-3)Gal(b1-4)GlcNAc(b1-2)Man(a1-6)]Man(b1-4)GlcNAc(b1-4)GlcNAc
# How it was run: as §1
# [7] = target: Gal(b1-4)GlcNAc(b1-3)Gal(b1-4)GlcNAc(b1-3)Gal(b1-4)GlcNAc(b1-2)Man(a1-3)[Gal(b1-4)GlcNAc(b1-3)Gal(b1-4)GlcNAc(b1-3)Gal(b1-4)GlcNAc(b1-2)Man(a1-6)]Man(b1-4)GlcNAc(b1-4)[Fuc(a1-6)]GlcNAc
# How it was run: as §1
# [8] = target: Gal(b1-4)GlcNAc(b1-3)Gal(b1-4)GlcNAc(b1-3)Gal(b1-4)GlcNAc(b1-2)[Gal(b1-4)GlcNAc(b1-3)Gal(b1-4)GlcNAc(b1-3)Gal(b1-4)GlcNAc(b1-6)]Man(a1-6)[Gal(b1-4)GlcNAc(b1-3)Gal(b1-4)GlcNAc(b1-3)Gal(b1-4)GlcNAc(b1-2)Man(a1-3)]Man(b1-4)GlcNAc(b1-4)[Fuc(a1-6)]GlcNAc
# How it was run: as §1
# [9] = target: Gal(b1-4)GlcNAc(b1-3)Gal(b1-4)GlcNAc(b1-3)Gal(b1-4)GlcNAc(b1-3)Gal(b1-4)GlcNAc(b1-2)Man(a1-3)[Gal(b1-4)GlcNAc(b1-3)Gal(b1-4)GlcNAc(b1-3)Gal(b1-4)GlcNAc(b1-3)Gal(b1-4)GlcNAc(b1-2)Man(a1-6)]Man(b1-4)GlcNAc(b1-4)GlcNAc
# How it was run: as §1
# [10] = target: Gal(b1-4)GlcNAc(b1-3)Gal(b1-4)GlcNAc(b1-3)Gal(b1-4)GlcNAc(b1-3)Gal(b1-4)GlcNAc(b1-2)Man(a1-3)[Gal(b1-4)GlcNAc(b1-3)Gal(b1-4)GlcNAc(b1-3)Gal(b1-4)GlcNAc(b1-3)Gal(b1-4)GlcNAc(b1-2)Man(a1-6)]Man(b1-4)GlcNAc(b1-4)[Fuc(a1-6)]GlcNAc
# How it was run: as §1
# [11] = target: Gal(b1-4)GlcNAc(b1-3)Gal(b1-4)GlcNAc(b1-3)Gal(b1-4)GlcNAc(b1-3)Gal(b1-4)GlcNAc(b1-2)[Gal(b1-4)GlcNAc(b1-3)Gal(b1-4)GlcNAc(b1-3)Gal(b1-4)GlcNAc(b1-3)Gal(b1-4)GlcNAc(b1-6)]Man(a1-6)[Gal(b1-4)GlcNAc(b1-3)Gal(b1-4)GlcNAc(b1-3)Gal(b1-4)GlcNAc(b1-3)Gal(b1-4)GlcNAc(b1-2)Man(a1-3)]Man(b1-4)GlcNAc(b1-4)[Fuc(a1-6)]GlcNAc
# How it was run: as §1
# [12] = target: Gal(b1-4)GlcNAc(b1-3)Gal(b1-4)GlcNAc(b1-3)Gal(b1-4)GlcNAc(b1-3)Gal(b1-4)GlcNAc(b1-3)Gal(b1-4)GlcNAc(b1-2)Man(a1-3)[Gal(b1-4)GlcNAc(b1-3)Gal(b1-4)GlcNAc(b1-3)Gal(b1-4)GlcNAc(b1-3)Gal(b1-4)GlcNAc(b1-3)Gal(b1-4)GlcNAc(b1-2)Man(a1-6)]Man(b1-4)GlcNAc(b1-4)GlcNAc
# How it was run: as §1
# [13] = target: Gal(b1-4)GlcNAc(b1-3)Gal(b1-4)GlcNAc(b1-3)Gal(b1-4)GlcNAc(b1-3)Gal(b1-4)GlcNAc(b1-3)Gal(b1-4)GlcNAc(b1-2)Man(a1-3)[Gal(b1-4)GlcNAc(b1-3)Gal(b1-4)GlcNAc(b1-3)Gal(b1-4)GlcNAc(b1-3)Gal(b1-4)GlcNAc(b1-3)Gal(b1-4)GlcNAc(b1-2)Man(a1-6)]Man(b1-4)GlcNAc(b1-4)[Fuc(a1-6)]GlcNAc
# How it was run: as §1
# [14] = target: Gal(b1-4)GlcNAc(b1-3)Gal(b1-4)GlcNAc(b1-3)Gal(b1-4)GlcNAc(b1-3)Gal(b1-4)GlcNAc(b1-3)Gal(b1-4)GlcNAc(b1-2)[Gal(b1-4)GlcNAc(b1-3)Gal(b1-4)GlcNAc(b1-3)Gal(b1-4)GlcNAc(b1-3)Gal(b1-4)GlcNAc(b1-3)Gal(b1-4)GlcNAc(b1-6)]Man(a1-6)[Gal(b1-4)GlcNAc(b1-3)Gal(b1-4)GlcNAc(b1-3)Gal(b1-4)GlcNAc(b1-3)Gal(b1-4)GlcNAc(b1-3)Gal(b1-4)GlcNAc(b1-2)Man(a1-3)]Man(b1-4)GlcNAc(b1-4)[Fuc(a1-6)]GlcNAc
# How it was run: as §1
# [15] = target: Gal(b1-4)GlcNAc(b1-3)Gal(b1-4)GlcNAc(b1-3)Gal(b1-4)GlcNAc(b1-3)Gal(b1-4)GlcNAc(b1-3)Gal(b1-4)GlcNAc(b1-3)Gal(b1-4)GlcNAc(b1-2)Man(a1-3)[Gal(b1-4)GlcNAc(b1-3)Gal(b1-4)GlcNAc(b1-3)Gal(b1-4)GlcNAc(b1-3)Gal(b1-4)GlcNAc(b1-3)Gal(b1-4)GlcNAc(b1-3)Gal(b1-4)GlcNAc(b1-2)Man(a1-6)]Man(b1-4)GlcNAc(b1-4)GlcNAc
# How it was run: as §1
# [16] = target: Gal(b1-4)GlcNAc(b1-3)Gal(b1-4)GlcNAc(b1-3)GalNAc
# How it was run: as §1
# [17] = target: Gal(b1-4)GlcNAc(b1-3)Gal(b1-4)GlcNAc(b1-3)[Gal(b1-4)GlcNAc(b1-3)Gal(b1-4)GlcNAc(b1-6)]GalNAc
# How it was run: as §1
# [18] = target: Gal(b1-4)GlcNAc(b1-3)Gal(b1-4)GlcNAc(b1-6)[Gal(b1-3)]GalNAc
# How it was run: as §1
# [19] = target: Gal(b1-4)GlcNAc(b1-3)Gal(b1-4)[Fuc(a1-3)GlcNAc(b1-6)]Gal(b1-4)Glc
# How it was run: as §1
binder,measurement,setting,value
B1,glycan array binding signal (z-score),[1],2.48
same,glycan array binding signal (z-score),[2],1.25
same,glycan array binding signal (z-score),[3],-0.361
same,glycan array binding signal (z-score),[4],0.176
same,glycan array binding signal (z-score),[5],-0.102
same,glycan array binding signal (z-score),[6],0.078
same,glycan array binding signal (z-score),[7],-0.153
same,glycan array binding signal (z-score),[8],-0.06
same,glycan array binding signal (z-score),[9],-0.267
same,glycan array binding signal (z-score),[10],0.631
same,glycan array binding signal (z-score),[11],0.053
same,glycan array binding signal (z-score),[12],-0.313
same,glycan array binding signal (z-score),[13],0.485
same,glycan array binding signal (z-score),[14],-0.342
same,glycan array binding signal (z-score),[15],-0.636
same,glycan array binding signal (z-score),[16],1.43
same,glycan array binding signal (z-score),[17],0.32
same,glycan array binding signal (z-score),[18],-0.243
same,glycan array binding signal (z-score),[19],0.944

# Quoted at random: 2 entries already listed, in no set order.
binder,measurement,setting,value
B1,glycan array binding signal (z-score),[3],-0.361
same,glycan array binding signal (z-score),[6],0.078
